Assay results published in PMC10800354.
Results are given in words; binding and its absence hold for the method and conditions named. Binding seen in cells or lysates may run through a third protein. Some binding calls cover weakened binding; strength is not graded here. For part of these data: Sequences can lack the tags named with a protein. Blank lines part the entries; values can stand above or below the molecule they belong to.

Sequences of proteins named here, by UniProt entry; tags and fusion partners are left off.
UniProt Q9HCJ5: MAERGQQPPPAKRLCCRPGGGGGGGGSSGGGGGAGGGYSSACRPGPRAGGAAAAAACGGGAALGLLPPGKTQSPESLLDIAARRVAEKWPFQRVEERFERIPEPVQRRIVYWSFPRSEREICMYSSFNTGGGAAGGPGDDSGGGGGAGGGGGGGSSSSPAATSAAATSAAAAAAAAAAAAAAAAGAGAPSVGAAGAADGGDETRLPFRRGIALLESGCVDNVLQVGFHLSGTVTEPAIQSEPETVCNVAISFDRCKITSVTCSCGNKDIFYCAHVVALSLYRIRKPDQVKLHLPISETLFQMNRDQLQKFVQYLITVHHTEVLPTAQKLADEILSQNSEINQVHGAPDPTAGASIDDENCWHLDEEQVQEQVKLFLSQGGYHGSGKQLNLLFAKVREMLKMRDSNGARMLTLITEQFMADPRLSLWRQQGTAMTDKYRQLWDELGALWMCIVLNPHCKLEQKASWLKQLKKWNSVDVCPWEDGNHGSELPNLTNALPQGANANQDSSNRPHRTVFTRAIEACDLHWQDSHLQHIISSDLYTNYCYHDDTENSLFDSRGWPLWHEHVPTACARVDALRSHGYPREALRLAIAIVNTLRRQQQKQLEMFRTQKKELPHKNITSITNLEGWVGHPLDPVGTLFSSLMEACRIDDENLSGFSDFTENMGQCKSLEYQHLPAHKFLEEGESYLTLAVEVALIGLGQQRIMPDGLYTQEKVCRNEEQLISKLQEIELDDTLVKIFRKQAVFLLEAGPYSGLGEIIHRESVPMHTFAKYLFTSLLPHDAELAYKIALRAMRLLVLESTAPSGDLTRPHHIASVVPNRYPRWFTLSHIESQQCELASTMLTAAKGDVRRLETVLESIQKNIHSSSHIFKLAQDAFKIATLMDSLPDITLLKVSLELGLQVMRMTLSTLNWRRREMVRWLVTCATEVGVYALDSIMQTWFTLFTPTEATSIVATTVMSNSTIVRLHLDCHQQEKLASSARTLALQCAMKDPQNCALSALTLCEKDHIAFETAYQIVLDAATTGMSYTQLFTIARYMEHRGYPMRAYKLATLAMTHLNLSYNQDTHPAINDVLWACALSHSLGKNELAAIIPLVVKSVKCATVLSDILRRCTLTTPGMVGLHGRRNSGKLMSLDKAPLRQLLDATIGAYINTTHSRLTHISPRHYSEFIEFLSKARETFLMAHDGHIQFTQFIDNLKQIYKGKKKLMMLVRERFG

Key:
Flag-NAT10 in 293T cells = molecular target: T1, Flag-NAT10 in 293T cells (UniProt Q9H0A0); assay: co-IP; 293T cells transiently co-transfected with Flag-NAT10 and HA-ZSWIM6 plasmids, treated with RNPS1 knockdown and MG132
T1 sequence: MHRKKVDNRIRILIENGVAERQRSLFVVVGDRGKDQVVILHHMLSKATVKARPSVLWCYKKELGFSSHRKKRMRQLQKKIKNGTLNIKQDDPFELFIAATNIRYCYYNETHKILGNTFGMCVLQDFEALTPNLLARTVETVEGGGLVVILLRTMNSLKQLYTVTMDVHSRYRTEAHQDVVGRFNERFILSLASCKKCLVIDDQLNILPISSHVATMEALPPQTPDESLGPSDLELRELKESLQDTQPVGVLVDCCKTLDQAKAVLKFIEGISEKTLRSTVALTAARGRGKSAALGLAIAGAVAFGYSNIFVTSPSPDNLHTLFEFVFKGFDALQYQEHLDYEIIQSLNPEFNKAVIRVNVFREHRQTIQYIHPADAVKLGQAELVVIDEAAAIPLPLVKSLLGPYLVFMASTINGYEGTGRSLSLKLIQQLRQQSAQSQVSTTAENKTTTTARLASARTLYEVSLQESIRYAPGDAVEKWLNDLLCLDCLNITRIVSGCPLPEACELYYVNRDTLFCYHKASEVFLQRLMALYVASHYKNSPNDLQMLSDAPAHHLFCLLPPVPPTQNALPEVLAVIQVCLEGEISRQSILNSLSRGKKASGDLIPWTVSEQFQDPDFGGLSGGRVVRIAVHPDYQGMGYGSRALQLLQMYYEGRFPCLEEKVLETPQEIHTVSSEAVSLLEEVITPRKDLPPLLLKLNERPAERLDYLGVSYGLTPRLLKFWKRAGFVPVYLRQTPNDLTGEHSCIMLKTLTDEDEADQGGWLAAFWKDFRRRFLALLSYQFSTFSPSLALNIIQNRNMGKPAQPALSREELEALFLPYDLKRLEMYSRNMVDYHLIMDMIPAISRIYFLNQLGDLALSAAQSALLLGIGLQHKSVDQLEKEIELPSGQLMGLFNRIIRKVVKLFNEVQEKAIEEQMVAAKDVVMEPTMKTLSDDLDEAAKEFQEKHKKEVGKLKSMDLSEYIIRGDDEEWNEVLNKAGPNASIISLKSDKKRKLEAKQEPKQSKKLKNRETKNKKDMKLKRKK

[1] = molecular target: T2, N-acetyltransferase 10 (NAT10), endogenous (human (endogenous in SCC-15)) (UniProt Q9H0A0); assay: co-IP; endogenous proteins in SCC-15, IP with anti-NAT10 or anti-ZSWIM6 antibody after RNPS1 knockdown and MG132 treatment; anti-IgG as negative control
T2 sequence: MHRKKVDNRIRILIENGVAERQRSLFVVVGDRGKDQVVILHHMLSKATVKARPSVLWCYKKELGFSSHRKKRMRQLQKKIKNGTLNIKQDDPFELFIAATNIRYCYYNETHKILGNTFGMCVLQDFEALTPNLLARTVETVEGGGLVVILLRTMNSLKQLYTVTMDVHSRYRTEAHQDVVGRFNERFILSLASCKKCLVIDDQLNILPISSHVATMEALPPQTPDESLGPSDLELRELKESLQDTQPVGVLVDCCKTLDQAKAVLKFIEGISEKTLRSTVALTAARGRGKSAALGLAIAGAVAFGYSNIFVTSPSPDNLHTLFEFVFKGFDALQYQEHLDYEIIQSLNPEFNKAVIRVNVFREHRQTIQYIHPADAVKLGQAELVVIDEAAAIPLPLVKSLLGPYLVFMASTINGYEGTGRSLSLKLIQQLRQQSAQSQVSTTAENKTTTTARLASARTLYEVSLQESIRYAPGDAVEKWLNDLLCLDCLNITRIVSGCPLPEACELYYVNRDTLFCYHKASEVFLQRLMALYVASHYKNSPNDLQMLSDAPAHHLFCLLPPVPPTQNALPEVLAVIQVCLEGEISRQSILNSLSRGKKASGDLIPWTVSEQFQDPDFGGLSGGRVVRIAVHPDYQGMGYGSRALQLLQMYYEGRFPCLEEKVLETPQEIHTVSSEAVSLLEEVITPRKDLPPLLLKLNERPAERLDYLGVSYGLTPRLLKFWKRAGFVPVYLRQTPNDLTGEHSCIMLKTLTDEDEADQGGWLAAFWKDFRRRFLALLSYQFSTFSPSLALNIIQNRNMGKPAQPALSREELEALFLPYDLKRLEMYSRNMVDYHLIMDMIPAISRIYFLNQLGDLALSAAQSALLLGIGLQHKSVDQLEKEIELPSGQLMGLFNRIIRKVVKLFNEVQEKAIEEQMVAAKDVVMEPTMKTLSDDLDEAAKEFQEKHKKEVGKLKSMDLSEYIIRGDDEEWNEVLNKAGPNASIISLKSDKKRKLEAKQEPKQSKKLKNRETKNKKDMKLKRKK

[2] = molecular target: T2, N-acetyltransferase 10 (NAT10), endogenous (human (endogenous in SCC-15)); assay: co-IP; endogenous proteins from SCC-15 cell extracts, IP with anti-NAT10 or anti-RNPS1 antibody, anti-IgG as negative control, immunoblot

binding (Flag-NAT10 in 293T cells): binds
Molecule: HA-ZSWIM6 in 293T cells (from UniProt Q9HCJ5 1-1215)

binding [1]: binds
Molecule: zinc finger SWIM domain-containing protein 6 (ZSWIM6), endogenous (from UniProt Q9HCJ5 1-1215)

binding [2]: binds
B1: RNA-binding protein with serine-rich domain 1 (RNPS1), endogenous (protein, UniProt Q15287 1-305)
chain: MDLSGVKKKSLLGVKENNKKSSTRAPSPTKRKDRSDEKSKDRSKDKGATKESSEKDRGRDKTRKRRSASSGSSSTRSRSSSTSSSGSSTSTGSSSGSSSSSASSRSGSSSTSRSSSSSSSSGSPSPSRRRHDNRRRSRSKSKPPKRDEKERKRRSPSPKPTKVHIGRLTRNVTKDHIMEIFSTYGKIKMIDMPVERMHPHLSKGYAYVEFENPDEAEKALKHMDGGQIDGQEITATAVLAPWPRPPPRRFSPPRRMLPPPPMWRRSPPRMRRRSRSPRRRSPVRRRSRSPGRRRHRSRSSSNSSR
